# Experimental data published in patent US20240307427A1 (priority 2023, published 2024).
# Entries after “also recorded” stand apart in the source; their conditions may differ. For at least one compound, name, drawing or mass did not settle the structure. Some entries share one result that the patent states for a list of compounds.
# Legend:
# [1] = In-vitro drug release study in pH 7.4 simulated lung fluid; format: physicochemical; conditions: 20 mL pH 7.4 SLF3, 37° C., 75 rpm, powders <63 μm, n=3
# [2] = pH determination during dissolution in simulated lung fluid; format: physicochemical; conditions: equimolar amount (0.017 mol) in 20 mL SLF, initial pH 7.4, 37° C.
# Procedure: The solution containing the samples was stirred at 75 rpm with a magnetic bar at 37° C., followed by in situ pH measurement at designated time points, i.e., 2 s, 5 s, 10 s, 15 s, 30 s, 45 s, 1 min, 1.5 min, 2 min, 3 min, 5 min, and 10 min, using a pH meter (Lab 850, Schott Instruments, United Kingdom).
# SARS-COV-2 = conditions: very low dose, 0.35 mg/kg once daily; cited from earlier work
structure (smiles),measurement,setting,value
"CCC(CC)COC(=O)[C@H](C)N[P@](=O)(OC[C@H]1O[C@@](C#N)(c2ccc3c(N)ncnn23)[C@H](O)[C@@H]1O)Oc1ccccc1 [RDV, Remdesivir]",plateau of RDV release in dissolution profile,[1],lower than 5%
same,medium pH at end point of dissolution (10 min),[2],7.55±0.04
same,antiviral effect of inhaled RDV,SARS-COV-2,sufficient to induce antiviral effect; also recorded: sufficient to exhibit antiviral effects in vivo
